The nature of the experiment: qHTS Assay to Find Inhibitors of Chronic Active B-Cell Receptor Signaling. The settings on record: ABC-DLBCL IkBa-CBG/CBR reporter, luminescence ratio (green luciferase fused to IkBa over red control in TMD8 lymphoma cells), 4 h. The procedure, abridged: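 Concentration-response series (up to 46 uM) were applied to TMD8 dual-reporter cells for 4 h at 37C with doxycycline. Green/red ratio, after filter-overlap correction, defined %Activity; red signal alone was normalised to basal cells and zero luminescence.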

Where [1] appears, read: measured here: CBR red luminescence, cell number.

This is one part of the list. The main result of the screen is listed elsewhere. These columns were measured beside it and carry no call. Compounds called inactive in the main read-out are mostly missing here. The note in brackets gives the kind of curve behind each potency; many fits are weak.

Regarding `CN1CCN(C(=O)CCN2C(=O)/C(=C\c3ccc(Cl)cc3)SC2=S)CC1`, under setting [1], the AC50 was 15.8 µM [falling, single point].

Turning to `Cc1ccn2c(NC3CCCC3)c(-c3ccsc3)nc2c1`, the AC50 under setting [1] was 6.31 µM [falling, single point].

Turning to `COc1cc(NC(=O)CSCC(=O)Nc2cccc(C(F)(F)F)c2)c(Cl)cc1Cl`, under setting [1], the AC50 is 11.2 µM [falling, partial curve, poor fit]. Consider `CCc1nnc(N/N=C/c2c(F)cccc2Cl)n1N`, for which the AC50 under setting [1] was 31.6 µM [falling, single point]. Take `COc1ccc(CNc2nc3ccccc3n2CCN2CCCCC2)c(OC)c1`: under setting [1], the AC50 was 25.1 µM [falling, single point]. On to `CN(CCCOc1ccccc1Br)Cc1ccccc1`, for which, under setting [1], the AC50 is 22.4 µM [rising, partial curve, poor fit]. Take `CCCCN=C1NN=C(c2ccc3c(c2)OCCO3)CS1`: the AC50 under setting [1] is 35.5 µM [falling, single point]. With `CCCc1nc2c(C)cc(-c3nc4ccccc4n3C)cc2n1Cc1ccc(-c2ccccc2C(=O)O)cc1`, the AC50 under setting [1] is 1.26 µM [falling, full curve, poor fit]. Take `CCOc1ccc(NC(=O)CCn2cccc2)cc1`: under setting [1], the AC50 was 1.12 µM [rising, partial curve, poor fit]. In the case of `CCN(C(=O)COC(=O)c1cncc(Br)c1)C1CCS(=O)(=O)C1` (stereo not given), under setting [1], the AC50 is 20 µM [falling, partial curve, poor fit].

For the compound `CN(C)CCCN(C(=O)c1ccc(S(=O)(=O)N(C)C)cc1)c1nc2cc3c(cc2s1)OCO3`, the AC50 under setting [1] is 14.1 µM [falling, single point]. In the case of `C=CCn1c(SCC(=O)c2[nH]c(C)c(C(=O)OC)c2C)nc2scc(-c3ccc(OC)c(OC)c3)c2c1=O`, under setting [1], the AC50 was 0.411 µM [rising, full curve, poor fit]. In the case of `COc1ccc(-c2cc(C)nc3c(-c4ccccc4)cnn23)cc1`, the AC50 under setting [1] was 3.55 µM [rising, partial curve, poor fit]. On to `Cc1ccc(-c2csc(NC(=O)C[n+]3cc(-c4ccc(C)cc4)n4c3CCC4)n2)cc1`, for which the AC50 under setting [1] is 20 µM [falling, single point]. Take `CCOC(=O)c1ccc(NC(=S)NCc2cccnc2)cc1`: the AC50 under setting [1] is 35.5 µM [rising, single point].

Turning to `NC(=O)c1ccsc1NC(=O)COC(=O)c1ccccc1NCc1ccco1`, the AC50 under setting [1] was 2.51 µM [falling, full curve, poor fit]. On to `COc1ccc(N2CCn3c2nc2c3c(=O)n(CCCc3ccccc3)c(=O)n2C)c(OC)c1`, for which the AC50 under setting [1] was 1 µM [falling, partial curve]. As to `Cc1ccc(Cc2cnc(NC(=O)C3CCCO3)s2)cc1` (stereo not given), the AC50 under setting [1] was 3.98 µM [rising, full curve, poor fit]. With `N=c1cc(C2(O)CCCCC2)n2c(nc3ccccc32)s1`, the AC50 under setting [1] is 0.231 µM [rising, full curve, poor fit]. `Cc1ccn(-c2ccc(NC(=O)c3cccs3)cc2)n1`: the AC50 under setting [1] was 2 µM [falling, full curve]. As to `CCOc1ccc(N2CC(NS(=O)(=O)c3cccnc3)CC2=O)cc1` (stereo not given), under setting [1], the AC50 was 23.1 µM [rising, single point]. For the compound `Cc1ccc(NC(=O)c2cncc(Br)c2)c(O)c1`, the AC50 under setting [1] is 12.6 µM [falling, partial curve, poor fit]. With `Cc1ccc(OCCCCN(C)Cc2ccccc2)c(Br)c1`, the AC50 under setting [1] was 0.082 µM [rising, full curve, poor fit]. For the compound `CNCCCCOc1ccccc1Cc1ccccc1`, the AC50 under setting [1] is 25.1 µM [falling, single point]. With `c1ccc(-c2cc3c(-n4cccc4)ncnc3o2)cc1`, the concentration at half-maximal activity (AC50) under setting [1] is 7.08 µM [falling, partial curve].

As to `Cc1ccc(CNC(=O)c2cc(-c3ccc(C)cc3)nc3n[nH]c(-c4ccc(F)cc4)c23)cc1`, the AC50 under setting [1] is 5.01 µM [rising, single point]. As for `Cc1csc2ncnc(N3CCN(C(=S)Nc4ccc(C(F)(F)F)cc4)CC3)c12`, the AC50 under setting [1] is 17.8 µM [falling, partial curve, poor fit]. Regarding `NC(=S)c1cnn2c(-c3cccc(C(F)(F)F)c3)ccnc12`, the half-maximal activity concentration (AC50) under setting [1] is 2.82 µM [rising, partial curve, poor fit]. Still for that read-out and setting: the same measure for `c1ccc2cc(CCO[C@H]3CCCCO3)ncc2c1`: 2.91 µM [rising, partial curve, poor fit]. For the compound `NNC(=O)/C(=C\c1ccco1)NC(=O)c1ccco1`, the AC50 is 7.08 µM [rising, full curve] under setting [1] and 3.16 µM [falling, full curve] (measured here: IkBa-CBG green luminescence). In the case of `CC(=O)Nc1cccc(NC(=O)CSc2nnnn2-c2ccc3c(c2)OCO3)c1`, the AC50 under setting [1] is 25.1 µM [falling, single point].

With `COC(=O)c1c(C)oc2ccc(N(C(=O)c3ccncc3)S(=O)(=O)c3ccc4ccccc4c3)cc12`, the AC50 under setting [1] was 2.91 µM [falling, partial curve, poor fit]. Regarding `CCn1c2ccccc2c2cc(NC(=O)CNCC3CCCO3)ccc21` (stereo not given), the AC50 under setting [1] is 6.31 µM [falling, partial curve, poor fit]. `CCCCOC(=O)c1ccc(O)cc1`: the AC50 under setting [1] was 23.1 µM [rising, single point]. The same measure, in the same setting: the same measure for `CNC(=O)COC(=O)c1cccc(S(=O)(=O)N2CCN(c3ccc(F)cc3)CC2)c1`: 20 µM [rising, partial curve, poor fit]; for `COc1ccc(N(CC(=O)Nc2ccccc2OC)S(=O)(=O)c2ccccc2)cc1Cl`: 12.6 µM [falling, partial curve, poor fit]; for `CCOc1ccccc1C(=O)OCC(=O)NCCNC(=O)COC(=O)c1ccccc1OCC`: 35.5 µM [falling, single point]. Take `Cn1nc(C(=O)NC2CCCC2)c2ccccc2c1=O`: under setting [1], the AC50 is 20.6 µM [rising, partial curve, poor fit].

Consider `CCOc1ccccc1N(CC(=O)NC1CCCC1)C(=O)CNC(=O)c1cccs1`, for which the AC50 under setting [1] is 14.1 µM [falling, partial curve]. Turning to `CC(C)OC(=O)CCc1nc2ccccc2[nH]c1=O`, the AC50 under setting [1] is 6.51 µM [falling, single point]. Turning to `CC1CCC(C(C)C)C(OC(=O)Cn2c(-c3ccc(Cl)cc3)[n+](C)c3ccccc32)C1` (stereo not given), the AC50 under setting [1] is 35.5 µM [falling, single point]. As to `Cc1ccc(C(=O)OCC(=O)Nc2cc(S(C)(=O)=O)ccc2Cl)cc1S(=O)(=O)N1CCCCC1`, the AC50 under setting [1] was 35.5 µM [falling, single point].

In the case of `Cc1ccc(C(C)C)c(OCCN)c1`, the AC50 under setting [1] was 15.8 µM [falling, partial curve, poor fit]. The same measure, in the same setting: under `CC1=C(C(=O)OCc2ccccc2)C(c2cccs2)N2C(=O)CCSC2=N1` (stereo not given) stands 1.12 µM [falling, full curve, poor fit]; under `CCOC(=O)C1CCN(C(=O)CN(c2ccc(OC)cc2)S(=O)(=O)c2c(C)nn(C)c2C)CC1`, 0.082 µM [rising, full curve, poor fit]; under `O=C(NCCOc1ccccc1)c1ccccc1`, 0.517 µM [rising, partial curve]. Turning to `CCOC(=O)C(CC)/C(C)=N/NC(=O)c1ccccc1[N+](=O)[O-]` (stereo not given), under setting [1], the AC50 is 3.55 µM [falling, full curve]. Still for that read-out and setting: the same measure for `O=C(O)c1ccc(COc2ccccc2Cl)cc1`: 20 µM [falling, single point]; for `CC(C)c1ccc(OCC(O)CN2CCN(c3ccccn3)CC2)cc1` (stereo not given): 11.2 µM [rising, partial curve]; for `COC(=O)c1ccc(C(=O)OC)c(NC(=O)COC(=O)C2CC2C)c1` (stereo not given): 16.4 µM [falling, single point]. Still for that read-out and setting: the same measure for `CC(=O)c1ccc(NC(=O)CSc2nnc(NC(=O)Nc3ccccc3)s2)cc1`: 0.282 µM [rising, full curve, poor fit]; for `CC(C)OC(=O)c1cccc(C(=O)Nc2cccc(NC(=O)c3cccc(C(=O)OC(C)C)n3)n2)n1`: 20 µM [rising, partial curve, poor fit]; for `COC(=O)C1=C(C)NC(C)=C(C(=O)OC)C1C(=O)OCC(=O)N1c2ccccc2CC1C` (stereo not given): 8.2 µM [rising, partial curve, poor fit]. Regarding `COc1cc(NC(=O)CCCNC(=O)c2ccc(Cl)cc2)cc(OC)c1`, under setting [1], the AC50 is 11.2 µM [rising, single point].

On to `CCc1ccccc1Nc1ncnc2c1cnn2-c1ccc(Cl)cc1`, for which the AC50 under setting [1] was 4.47 µM [falling, full curve, poor fit]. Same read-out and setting: under `C=CCc1ccc(OCCCOc2ccc(C)c(C)c2)c(OC)c1` stands 20.6 µM [rising, single point]; under `OC(CNCCc1ccc(C(F)(F)F)cc1)COc1ccc2ccccc2c1` (stereo not given), 23.1 µM [falling, single point]; under `C/C(CCc1ccco1)=N\NC(=O)CNc1cccc2ccccc12`, 35.5 µM [falling, single point]. Take `COC(=O)[C@H](CC(C)C)NC(=O)c1cc2c(cn1)[nH]c1ccccc12`: under setting [1], the AC50 was 25.1 µM [falling, single point]. Same read-out and setting: under `CNC(=O)C1CCN(Cc2cc3ccccc3n2Cc2cccc(C)c2)CC1` stands 6.31 µM [falling, partial curve, poor fit].

As to `Cc1ccc(-n2c(-c3cccc(C)c3)n[nH]c2=S)cc1`, under setting [1], the AC50 is 2.91 µM [rising, partial curve, poor fit].

Regarding `O=C(Nc1ccc(O)cc1)/C(=C\C=C\c1ccccc1)NC(=O)c1ccccc1`, the AC50 under setting [1] was 3.16 µM [falling, partial curve, poor fit]. Regarding `O=S(=O)(c1cnc(Cl)c(Br)c1)N1CCCCCC1`, the AC50 under setting [1] is 2.59 µM [falling, full curve, poor fit]. `Cc1cc(C)n2nc(SCc3ccccc3F)nc2n1`: the AC50 under setting [1] was 15.8 µM [rising, single point].

Source of the values: PubChem BioAssay AID493014 (National Center for Advancing Translational Sciences (NCATS), 2011).
